# Laboratory results taken from the M2OR odorant receptor database.
# Chains of the proteins cited; added tags and fusions are not shown. Chains listed by the source or under a name are the forms on record and can include a tag or linker.
# OR1A2 V205I, as listed by the source, stated change not applied: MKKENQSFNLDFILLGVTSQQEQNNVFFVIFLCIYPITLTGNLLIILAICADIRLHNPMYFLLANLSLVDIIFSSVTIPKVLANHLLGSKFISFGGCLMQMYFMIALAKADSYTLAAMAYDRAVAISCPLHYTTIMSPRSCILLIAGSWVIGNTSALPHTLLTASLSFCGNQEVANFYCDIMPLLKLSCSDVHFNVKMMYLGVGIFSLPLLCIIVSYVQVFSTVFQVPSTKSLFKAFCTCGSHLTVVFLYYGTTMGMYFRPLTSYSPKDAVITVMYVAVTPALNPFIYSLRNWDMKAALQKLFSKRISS
# OR1A2 A108G, as listed by the source, stated change not applied: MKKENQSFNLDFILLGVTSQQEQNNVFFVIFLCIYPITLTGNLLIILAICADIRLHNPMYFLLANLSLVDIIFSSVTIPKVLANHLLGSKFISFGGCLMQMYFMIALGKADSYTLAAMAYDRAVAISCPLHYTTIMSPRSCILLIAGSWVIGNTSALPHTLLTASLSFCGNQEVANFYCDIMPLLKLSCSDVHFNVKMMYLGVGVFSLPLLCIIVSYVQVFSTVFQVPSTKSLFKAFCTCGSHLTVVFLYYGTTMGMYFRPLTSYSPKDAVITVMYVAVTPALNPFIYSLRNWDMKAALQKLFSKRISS
# OR1D2, as listed by the source: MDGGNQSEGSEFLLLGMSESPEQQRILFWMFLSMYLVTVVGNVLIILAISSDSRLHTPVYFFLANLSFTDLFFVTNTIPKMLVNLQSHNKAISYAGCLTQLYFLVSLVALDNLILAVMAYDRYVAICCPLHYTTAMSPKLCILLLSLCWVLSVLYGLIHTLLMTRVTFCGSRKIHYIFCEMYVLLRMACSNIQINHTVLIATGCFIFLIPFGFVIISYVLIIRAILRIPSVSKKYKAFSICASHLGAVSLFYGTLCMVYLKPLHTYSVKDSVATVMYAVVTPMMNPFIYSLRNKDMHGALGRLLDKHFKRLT
# OR1A2 V277T, as listed by the source, stated change not applied: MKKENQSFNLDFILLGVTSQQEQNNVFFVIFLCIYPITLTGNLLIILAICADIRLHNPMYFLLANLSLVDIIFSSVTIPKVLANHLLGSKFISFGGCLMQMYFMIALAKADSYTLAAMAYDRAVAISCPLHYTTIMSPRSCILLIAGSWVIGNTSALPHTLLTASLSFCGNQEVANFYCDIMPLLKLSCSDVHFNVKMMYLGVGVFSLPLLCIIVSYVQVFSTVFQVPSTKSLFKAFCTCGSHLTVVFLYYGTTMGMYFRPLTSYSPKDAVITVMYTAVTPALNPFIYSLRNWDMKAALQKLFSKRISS
# OR1B1, as listed by the source: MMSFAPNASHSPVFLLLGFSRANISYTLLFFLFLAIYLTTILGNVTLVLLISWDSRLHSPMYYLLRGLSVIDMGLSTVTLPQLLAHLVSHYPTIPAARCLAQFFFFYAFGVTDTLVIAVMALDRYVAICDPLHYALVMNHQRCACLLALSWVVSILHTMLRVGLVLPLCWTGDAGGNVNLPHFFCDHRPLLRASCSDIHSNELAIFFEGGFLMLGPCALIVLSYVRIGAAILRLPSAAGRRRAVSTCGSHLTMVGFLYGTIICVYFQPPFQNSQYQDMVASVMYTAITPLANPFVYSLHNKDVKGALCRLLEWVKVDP
# OR1A2 K109N, as listed by the source, stated change not applied: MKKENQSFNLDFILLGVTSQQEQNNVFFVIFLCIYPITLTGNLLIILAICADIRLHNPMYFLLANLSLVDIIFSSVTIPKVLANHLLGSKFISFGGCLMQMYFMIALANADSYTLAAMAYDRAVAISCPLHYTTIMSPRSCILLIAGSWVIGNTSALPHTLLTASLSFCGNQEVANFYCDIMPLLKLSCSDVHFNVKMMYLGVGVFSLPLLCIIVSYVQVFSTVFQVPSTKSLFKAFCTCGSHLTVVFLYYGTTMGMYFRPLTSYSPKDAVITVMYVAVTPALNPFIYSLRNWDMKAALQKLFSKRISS
# OR1A2 T254V, as listed by the source, stated change not applied: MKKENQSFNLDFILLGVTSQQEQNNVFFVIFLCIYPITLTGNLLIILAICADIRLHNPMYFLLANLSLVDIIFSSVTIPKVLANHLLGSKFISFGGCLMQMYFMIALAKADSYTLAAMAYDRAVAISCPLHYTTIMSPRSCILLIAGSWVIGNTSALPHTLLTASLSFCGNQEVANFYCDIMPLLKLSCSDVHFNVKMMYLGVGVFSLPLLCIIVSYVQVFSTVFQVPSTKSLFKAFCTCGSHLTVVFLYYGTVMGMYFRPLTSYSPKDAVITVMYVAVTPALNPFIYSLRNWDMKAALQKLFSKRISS
# Only a part is listed here, and it is no random draw. Calls are pooled over several reports, among them a noisy single-well screen.
# How the values were obtained:
# Details in all cases: stereoisomer not certain
# [1] = tested on: OR1A2 A108G
# Summary of the method: (§1)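 Each receptor–molecule pair is labelled responsive or non-responsive (inactive) according to whether the original authors judged the measured signal statistically different from baseline. The data were taken from the main text and supplementary material of published papers and checked for typos and inconsistencies. Assay methods differed by source, with transient luciferase assays in mammalian cell lines being common.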
# [2] = tested on: OR1A2 K109N
# Summary of the method: as §1
# [3] = tested on: OR1A2 T254V
# Summary of the method: as §1
# [4] = tested on: OR1A2 V205I
# Summary of the method: as §1
# [5] = tested on: OR1A2 V277T
# Summary of the method: as §1
# [6] = tested on: OR1B1
# Summary of the method: as §1
# [7] = molecular target: T1, OR1C1 (Homo sapiens) (UniProt Q15619)
# T1 sequence (whole entry): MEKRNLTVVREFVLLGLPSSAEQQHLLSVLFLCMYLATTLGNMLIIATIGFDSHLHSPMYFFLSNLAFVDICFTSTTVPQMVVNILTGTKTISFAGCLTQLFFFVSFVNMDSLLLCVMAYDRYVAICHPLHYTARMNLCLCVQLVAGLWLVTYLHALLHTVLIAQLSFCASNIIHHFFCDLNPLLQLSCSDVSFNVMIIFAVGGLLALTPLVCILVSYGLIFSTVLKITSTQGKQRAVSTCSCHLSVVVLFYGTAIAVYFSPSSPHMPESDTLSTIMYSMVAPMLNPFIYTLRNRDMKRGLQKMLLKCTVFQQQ
# Summary of the method: as §1
# [8] = molecular target: T2, OR1D2 (Homo sapiens) (UniProt P34982)
# T2 sequence (whole entry): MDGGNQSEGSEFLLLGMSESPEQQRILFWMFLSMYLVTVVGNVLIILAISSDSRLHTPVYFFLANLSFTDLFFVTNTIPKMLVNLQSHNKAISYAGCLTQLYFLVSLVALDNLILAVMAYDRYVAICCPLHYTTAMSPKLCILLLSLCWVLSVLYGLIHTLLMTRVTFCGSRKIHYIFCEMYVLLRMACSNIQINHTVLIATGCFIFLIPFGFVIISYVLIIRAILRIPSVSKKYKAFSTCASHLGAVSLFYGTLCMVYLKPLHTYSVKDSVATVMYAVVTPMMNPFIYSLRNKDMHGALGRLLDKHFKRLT
# Summary of the method: as §1
# [9] = tested on: OR1D2
# Summary of the method: as §1
# [10] = tested on: OR1D2; remark: listed apart in the source
# Summary of the method: as §1
# 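Note: active if original authors judged signal statistically different from baseline.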
structure (smiles),measurement,setting,value
C=C(C)C1CC=C(C)C(=O)C1 (stereo not drawn),odorant receptor agonist call,[1],inactive
same,odorant receptor agonist call,[2],inactive
same,odorant receptor agonist call,[3],inactive
same,odorant receptor agonist call,[4],inactive
same,odorant receptor agonist call,[5],inactive
CC12C=CCC1C1CCC3CC(=O)CCC3(C)C1CC2 (stereo not drawn),odorant receptor agonist call,[6],inactive
C=CCc1ccc(OC)c(OC)c1,odorant receptor agonist call,[7],inactive
same,odorant receptor agonist call,[8],inactive
CC1CCC(C(C)C)C(O)C1 (stereo not drawn),odorant receptor agonist call,[7],inactive
same,odorant receptor agonist call,[8],inactive
CCCCCCOC(=O)CCC,odorant receptor agonist call,[7],inactive
same,odorant receptor agonist call,[8],inactive
CC(=O)OCC=C(C)CCC=C(C)C,odorant receptor agonist call,[7],inactive
same,odorant receptor agonist call,[8],active
same,odorant receptor agonist call,[9],inactive
same,odorant receptor agonist call,[10],inactive
CCCCCCCCCCC=O,odorant receptor agonist call,[7],inactive
same,odorant receptor agonist call,[8],inactive
COc1cc(C)ccc1O,odorant receptor agonist call,[7],inactive
same,odorant receptor agonist call,[8],inactive
CC12CCC(C1)C(C)(C)C2=O (stereo not drawn),odorant receptor agonist call,[7],inactive
same,odorant receptor agonist call,[8],inactive
CC(C)(C)c1ccc(CCC=O)cc1,odorant receptor agonist call,[7],inactive
same,odorant receptor agonist call,[8],active
CC(C)C=O,odorant receptor agonist call,[7],inactive
same,odorant receptor agonist call,[8],inactive
CCCCCOC(C)=O,odorant receptor agonist call,[7],active
same,odorant receptor agonist call,[8],inactive
CCCCCCCC=O,odorant receptor agonist call,[7],inactive
same,odorant receptor agonist call,[8],inactive
O=C1CCCCCCCCCCCC(=O)OCCO1,odorant receptor agonist call,[7],inactive
same,odorant receptor agonist call,[8],inactive
CCCCCCCOC(C)=O,odorant receptor agonist call,[7],inactive
same,odorant receptor agonist call,[8],inactive
c1cnccn1,odorant receptor agonist call,[7],inactive
same,odorant receptor agonist call,[8],inactive
CC=Cc1ccc(O)c(OC)c1,odorant receptor agonist call,[7],inactive
same,odorant receptor agonist call,[8],inactive
CC(C)CC(=O)O,odorant receptor agonist call,[7],inactive
same,odorant receptor agonist call,[8],inactive
O=C1CCCCCCCCCCCCCCO1,odorant receptor agonist call,[7],inactive
same,odorant receptor agonist call,[8],inactive
CCC=CCCO,odorant receptor agonist call,[7],inactive
same,odorant receptor agonist call,[8],inactive
CCCCCC(=O)O,odorant receptor agonist call,[7],inactive
same,odorant receptor agonist call,[8],inactive
CC1=NC(C)SC1C (stereo not drawn),odorant receptor agonist call,[7],inactive
same,odorant receptor agonist call,[8],inactive
CC1COCc2cc3c(cc21)C(C)(C)C(C)C3(C)C (stereo not drawn),odorant receptor agonist call,[7],active
same,odorant receptor agonist call,[8],active
COC(=O)c1ccccc1,odorant receptor agonist call,[7],active
same,odorant receptor agonist call,[8],inactive
CC(=O)OC1CC2CCC1(C)C2(C)C (stereo not drawn),odorant receptor agonist call,[7],inactive
same,odorant receptor agonist call,[8],inactive
COc1ccccc1O,odorant receptor agonist call,[7],inactive
same,odorant receptor agonist call,[8],inactive
c1ccc(Oc2ccccc2)cc1,odorant receptor agonist call,[7],inactive
same,odorant receptor agonist call,[8],inactive

# A different layout for some results above:
structure (smiles)	measurement	setting	value
c1cnccn1	odorant receptor agonist call	[7]	inactive
same	odorant receptor agonist call	[8]	inactive
CC=Cc1ccc(O)c(OC)c1	odorant receptor agonist call	[7]	inactive
same	odorant receptor agonist call	[8]	inactive
